PubChem BioAssay AID652272, Drosophila RNAi Screening Center, 2013

Aim: 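Finding fly genes that regulate Hedgehog signal transduction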 (primary screen)
System: Drosophila clone 8 (Cl8) cells
Reagents: long dsRNA against Drosophila genes
Detection: 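Plate reader light from a firefly reporter under a ptc promoter fragment that responds to Hedgehog, with Renilla light as transfection reference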
Direction: firefly Hh reporter signal: higher = more ptc reporter light; Renilla reference signal: higher = more Renilla control light
Hit rule: 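Called a hit if the two-replicate mean z-score lies below -2 or above +3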
Meaning of the calls: active = hit: reporter lowered or raised; inactive = not a hit
The screen tested about 21,000 reagents; shown is an unselected part of those that have a named target and a result. Of all reagents, 503 (2.4%) are marked active. 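Raw plate light values, not normalised; calls rest on replicate z-scores that were not deposited; hits include reporter decreases as well as increases.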 Names joined by + are all predicted targets of the reagent. Not stated in the record: the amount of reagent, the time to read-out.

firefly Hh reporter signal, replicate 1 | firefly Hh reporter signal, replicate 2 | firefly Hh reporter signal, replicate 3 | Renilla reference signal, replicate 1 | Renilla reference signal, replicate 2 | outcome | target gene | DRSC id
1.01e5 | 80317 | – | 4477 | 3845 | inactive | Vps15 | DRSC16553
90473 | 1.18e5 | – | 3544 | 4776 | inactive | Tspo + rempA | DRSC00533
1.59e5 | 4.21e5 | – | 5825 | 14899 | inactive | CG14265 | DRSC18591
80864 | 76029 | – | 3090 | 2050 | inactive | CG8138 | DRSC16386
87415 | 46053 | – | 2950 | 4481 | inactive | CG9933 | DRSC03276
71481 | 1.78e5 | – | 1976 | 6603 | inactive | CG14411 | DRSC19597
48105 | 55403 | – | 2017 | 2467 | inactive | Mip | DRSC10639
1.65e5 | 4.34e5 | – | 6745 | 14997 | inactive | fd19B | DRSC20688
56605 | 82184 | – | 1018 | 2490 | inactive | GlnRS | DRSC14140
1.36e5 | 3.19e5 | – | 4277 | 13296 | inactive | ms(2)35Ci | DRSC01460
1.03e5 | 58504 | – | 2580 | 1650 | inactive | CG1703 | DRSC19764
1.45e5 | 1.37e5 | – | 6800 | 4832 | inactive | CG31036 | DRSC15055
82677 | 1.03e5 | – | 3249 | 3097 | inactive | CG31036 | DRSC15057
90233 | 45392 | – | 2989 | 5114 | inactive | eRF3 | DRSC03322
1.37e5 | 43384 | – | 4000 | 2011 | inactive | CG5861 | DRSC02907
1.50e5 | – | – | 3723 | 4277 | inactive | CG17177 | DRSC10257
61956 | 47988 | – | 2428 | 3344 | inactive | CG9166 | DRSC07842
1.78e5 | 1.20e5 | – | 8236 | 4963 | inactive | CG13921 | DRSC08390
60976 | 1.90e5 | – | 1649 | 7136 | inactive | yellow-h | DRSC17141
74032 | 1.66e5 | – | 1863 | 6936 | inactive | CG15545 | DRSC15083
70551 | 44080 | – | 1946 | 3848 | inactive | CG33322 | DRSC03204
78000 | 2.06e5 | – | 2813 | 7033 | inactive | bou | DRSC17924
45132 | 90552 | – | 1360 | 2042 | inactive | CG9698 | DRSC16539
1.66e5 | 5.99e5 | 1.07e5 | 3689 | 38676 | inactive | fs(1)h | DRSC18778
57373 | 62273 | – | 2666 | 2787 | inactive | CG11018 | DRSC06024
1.26e5 | 1.11e5 | – | 4560 | 3776 | inactive | CG14247 | DRSC14742
47145 | 50944 | – | 5409 | 3123 | inactive | Cp19 | DRSC11121
62376 | 1.75e5 | – | 2070 | 7962 | inactive | CG40485 | DRSC20624
1.17e5 | 91666 | – | 4311 | 2216 | inactive | CG10909 | DRSC14282
81680 | 65072 | – | 1696 | 2688 | inactive | 4E-T | DRSC17201
70487 | 1.90e5 | – | 2121 | 8209 | inactive | 4E-T | DRSC17208
1.09e5 | 87444 | – | 2708 | 2234 | inactive | CG15386 + CG42371 | DRSC00400
86092 | 58048 | – | 2873 | 2440 | inactive | Uggt | DRSC11315
93810 | 60857 | – | 4193 | 2549 | inactive | CG8838 | DRSC00712
77547 | 78308 | – | 2262 | 5056 | inactive | CG42288 | DRSC06381
1.03e5 | 1.13e5 | – | 4641 | 3712 | inactive | Ccp84Aa | DRSC12586
82880 | 49261 | – | 3994 | 1962 | inactive | CG5290 | DRSC10501
76016 | 1.23e5 | – | 3515 | 8044 | active | Tie | DRSC08104
37273 | 46666 | – | 4464 | 3856 | inactive | Tie | DRSC08702
5.24e5 | 1.29e5 | – | 4040 | 4040 | inactive | CG9921 | DRSC20220
46983 | 34931 | – | 2514 | 1876 | inactive | Gad1 | DRSC08661
65978 | 62128 | – | 6362 | 3765 | inactive | CG8219 | DRSC10971
1.12e5 | 99248 | – | 3482 | 2829 | inactive | Polr2B | DRSC16831
34332 | 51847 | – | 2225 | 1825 | inactive | Rca1 | DRSC03407
2.22e5 | – | – | 4866 | – | inactive | CG42717 | DRSC09411
1.34e5 | – | – | 2848 | 3424 | inactive | CG7542 | DRSC10868
73768 | 1.49e5 | – | 2245 | 5691 | inactive | CG15472 | DRSC18055
1.76e5 | 3.21e5 | – | 5376 | 14397 | inactive | CG34263 | DRSC07866
1.80e5 | 1.95e5 | – | 4320 | 4301 | inactive | stas | DRSC20104
69280 | 1.35e5 | – | 1904 | 3639 | inactive | CG10512 | DRSC11615
1.15e5 | 1.49e5 | – | 3986 | 4044 | inactive | CG11458 | DRSC11666
79336 | 6.11e5 | 57239 | 4292 | 3682 | inactive | CG13679 | DRSC10037
96582 | 71184 | 90825 | 8433 | 7528 | inactive | CG18628 | DRSC10328
93012 | 88688 | – | 3777 | 3738 | inactive | stv | DRSC09796
47446 | 57389 | 57474 | 4184 | 4000 | inactive | stv | DRSC10111
2.17e5 | – | – | 4745 | – | inactive | HGTX | DRSC09319
96420 | – | – | 4438 | 2928 | inactive | HGTX | DRSC11181
71552 | 2.18e5 | – | 2342 | 8935 | inactive | rictor | DRSC20071

Called active (from the list above):
firefly Hh reporter signal, replicate 1 | firefly Hh reporter signal, replicate 2 | firefly Hh reporter signal, replicate 3 | Renilla reference signal, replicate 1 | Renilla reference signal, replicate 2 | outcome | target gene | DRSC id
76016 | 1.23e5 | – | 3515 | 8044 | active | Tie | DRSC08104
